{"source": "ChEMBL document CHEMBL1135942", "about": "“Synthesis of 5,6-dihydro-11H-benzo[5,6]-cyclohepta[1,2-b]pyridin-11-ylidene)-1-piperidine-N-cyanoguanidine derivatives as inhibitors of ras farnesyl protein transferase” (Bioorg Med Chem Lett, 2002)", "target": "Protein farnesyltransferase (Homo sapiens, UniProt P49354+P49356)", "assay": "FPT inhibitory activity was determined by the ability to inhibit the transfer of [3H]farnesyl from farnesyl pyrophosphate to H-ras-CLVS", "type": "protein-complex assay", "data": [{"smiles": "Clc1ccc2c(c1)CCc1cccnc1C2=C1CCNCC1", "note": "[DESLORATADINE]", "values": [{"measurement": "IC50", "result": "> 65", "unit": "µM"}]}]}
